Some of the results follow.
Tests used:
Experiment in all cases: log2 fold change, soluble protein after heating vs DMSO (PISA); higher = thermal stabilisation; K562 lysate, 10 uM; active = over 0.2 and 3.5 SD of the protein, either way, in both replicates (recomputed)
nilotinib = compound: Cc1cn(-c2cc(NC(=O)c3ccc(C)c(Nc4nccc(-c5cccnc5)n4)c3)cc(C(F)(F)F)c2)cn1 [nilotinib]
Outline: (§1)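 K562 pellets were dounce-homogenised in PBS pH 7.4 with 1 mM MgCl2, and the crude extract at 1 mg/mL protein was treated with 10 μM compound for 30 min. Aliquots were heated for 3 min across 48°C-58°C, pooled, and brought to 0.5% NP-40 at 4°C; soluble protein was the supernatant after 21,000xg for 90 min. Soluble protein was quantified by TMTpro 16plex LC-MS/MS with channel sums equalised, and reported as log2 fold change in thermal stability against DMSO controls, with values from duplicates.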

Sequences of proteins named here, by UniProt entry; tags and fusion partners are left off. A change or cut given only in a name is not applied to a line headed by its entry.
UniProt Q02078: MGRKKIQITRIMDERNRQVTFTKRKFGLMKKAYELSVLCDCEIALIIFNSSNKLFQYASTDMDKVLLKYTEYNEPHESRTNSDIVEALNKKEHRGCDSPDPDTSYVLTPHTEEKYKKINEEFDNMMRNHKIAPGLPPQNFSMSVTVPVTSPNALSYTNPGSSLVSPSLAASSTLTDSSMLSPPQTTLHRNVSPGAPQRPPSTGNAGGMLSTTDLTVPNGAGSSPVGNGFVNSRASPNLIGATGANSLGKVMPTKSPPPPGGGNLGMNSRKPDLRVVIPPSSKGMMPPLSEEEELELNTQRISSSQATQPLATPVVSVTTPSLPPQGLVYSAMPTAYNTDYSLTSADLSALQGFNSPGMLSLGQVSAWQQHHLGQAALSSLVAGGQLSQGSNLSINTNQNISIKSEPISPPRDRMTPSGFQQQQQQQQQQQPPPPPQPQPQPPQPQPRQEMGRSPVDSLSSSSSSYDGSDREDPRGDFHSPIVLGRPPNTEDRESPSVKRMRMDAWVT
UniProt Q96RQ3: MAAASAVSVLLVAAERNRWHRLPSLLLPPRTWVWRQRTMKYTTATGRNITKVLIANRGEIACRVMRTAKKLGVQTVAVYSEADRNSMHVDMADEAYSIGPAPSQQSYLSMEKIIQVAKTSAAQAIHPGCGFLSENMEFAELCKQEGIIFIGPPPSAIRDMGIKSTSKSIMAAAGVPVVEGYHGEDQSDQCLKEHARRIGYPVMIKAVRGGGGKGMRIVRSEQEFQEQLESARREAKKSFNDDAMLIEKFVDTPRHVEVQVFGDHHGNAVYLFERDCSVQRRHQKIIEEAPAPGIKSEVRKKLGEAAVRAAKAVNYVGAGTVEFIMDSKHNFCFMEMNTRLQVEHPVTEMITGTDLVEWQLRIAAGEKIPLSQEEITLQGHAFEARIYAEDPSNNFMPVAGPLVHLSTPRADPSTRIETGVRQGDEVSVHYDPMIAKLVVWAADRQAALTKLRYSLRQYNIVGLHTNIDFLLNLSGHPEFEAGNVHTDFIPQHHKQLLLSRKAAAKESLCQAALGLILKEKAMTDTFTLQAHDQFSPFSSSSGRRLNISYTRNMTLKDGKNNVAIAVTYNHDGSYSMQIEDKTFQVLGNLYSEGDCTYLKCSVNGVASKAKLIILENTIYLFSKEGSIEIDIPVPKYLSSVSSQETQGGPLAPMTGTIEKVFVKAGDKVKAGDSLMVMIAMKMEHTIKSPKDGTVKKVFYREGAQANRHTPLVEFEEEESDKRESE
UniProt Q14814: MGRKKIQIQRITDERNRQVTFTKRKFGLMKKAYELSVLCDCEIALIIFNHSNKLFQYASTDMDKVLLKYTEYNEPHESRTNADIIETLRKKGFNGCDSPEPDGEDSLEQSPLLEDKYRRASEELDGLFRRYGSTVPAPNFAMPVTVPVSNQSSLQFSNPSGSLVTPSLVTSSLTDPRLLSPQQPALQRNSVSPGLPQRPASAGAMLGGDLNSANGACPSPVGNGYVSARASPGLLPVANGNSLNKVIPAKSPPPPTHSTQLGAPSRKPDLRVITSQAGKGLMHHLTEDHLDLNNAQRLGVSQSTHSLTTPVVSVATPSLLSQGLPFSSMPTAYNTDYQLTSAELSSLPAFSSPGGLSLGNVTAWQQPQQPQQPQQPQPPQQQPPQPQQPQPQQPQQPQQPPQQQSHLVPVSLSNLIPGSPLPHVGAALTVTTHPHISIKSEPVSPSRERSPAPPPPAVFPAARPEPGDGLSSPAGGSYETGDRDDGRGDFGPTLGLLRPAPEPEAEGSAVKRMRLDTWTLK
UniProt Q14566: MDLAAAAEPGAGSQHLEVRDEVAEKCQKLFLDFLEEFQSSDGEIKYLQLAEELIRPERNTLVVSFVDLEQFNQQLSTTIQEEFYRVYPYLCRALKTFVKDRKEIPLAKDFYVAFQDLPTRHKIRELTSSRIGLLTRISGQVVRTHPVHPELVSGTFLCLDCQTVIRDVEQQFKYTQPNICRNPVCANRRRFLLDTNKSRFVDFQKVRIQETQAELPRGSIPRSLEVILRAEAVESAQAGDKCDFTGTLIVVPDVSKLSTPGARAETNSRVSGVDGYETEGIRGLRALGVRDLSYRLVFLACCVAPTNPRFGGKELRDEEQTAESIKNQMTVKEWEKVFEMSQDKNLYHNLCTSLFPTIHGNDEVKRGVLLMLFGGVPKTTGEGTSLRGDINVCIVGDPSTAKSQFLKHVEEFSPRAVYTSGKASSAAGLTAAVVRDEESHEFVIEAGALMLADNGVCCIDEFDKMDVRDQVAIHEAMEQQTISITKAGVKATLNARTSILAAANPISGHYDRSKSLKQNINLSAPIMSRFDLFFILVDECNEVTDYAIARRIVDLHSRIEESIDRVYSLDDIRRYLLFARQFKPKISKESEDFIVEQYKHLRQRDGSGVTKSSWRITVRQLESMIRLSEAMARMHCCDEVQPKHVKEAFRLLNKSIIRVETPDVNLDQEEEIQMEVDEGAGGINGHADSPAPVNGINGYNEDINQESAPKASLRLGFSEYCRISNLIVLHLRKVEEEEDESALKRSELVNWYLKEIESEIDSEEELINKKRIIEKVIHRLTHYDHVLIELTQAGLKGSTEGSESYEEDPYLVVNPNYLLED
UniProt Q6P2C8: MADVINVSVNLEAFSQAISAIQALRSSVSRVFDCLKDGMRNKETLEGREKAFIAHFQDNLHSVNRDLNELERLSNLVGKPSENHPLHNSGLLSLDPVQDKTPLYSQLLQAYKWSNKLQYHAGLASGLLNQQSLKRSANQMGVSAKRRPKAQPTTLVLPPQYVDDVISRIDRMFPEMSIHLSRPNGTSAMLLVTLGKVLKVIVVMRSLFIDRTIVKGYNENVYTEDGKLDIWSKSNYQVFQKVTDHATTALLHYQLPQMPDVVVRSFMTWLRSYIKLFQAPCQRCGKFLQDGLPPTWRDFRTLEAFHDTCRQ
UniProt Q68D91: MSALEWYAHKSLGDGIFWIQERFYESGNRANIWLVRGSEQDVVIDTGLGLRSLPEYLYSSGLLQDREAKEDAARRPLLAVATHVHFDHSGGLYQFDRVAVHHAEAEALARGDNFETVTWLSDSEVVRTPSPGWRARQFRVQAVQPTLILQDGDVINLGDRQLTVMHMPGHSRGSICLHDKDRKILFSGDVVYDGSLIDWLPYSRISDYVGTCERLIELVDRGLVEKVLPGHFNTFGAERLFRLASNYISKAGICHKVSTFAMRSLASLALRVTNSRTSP
UniProt Q9BTE3: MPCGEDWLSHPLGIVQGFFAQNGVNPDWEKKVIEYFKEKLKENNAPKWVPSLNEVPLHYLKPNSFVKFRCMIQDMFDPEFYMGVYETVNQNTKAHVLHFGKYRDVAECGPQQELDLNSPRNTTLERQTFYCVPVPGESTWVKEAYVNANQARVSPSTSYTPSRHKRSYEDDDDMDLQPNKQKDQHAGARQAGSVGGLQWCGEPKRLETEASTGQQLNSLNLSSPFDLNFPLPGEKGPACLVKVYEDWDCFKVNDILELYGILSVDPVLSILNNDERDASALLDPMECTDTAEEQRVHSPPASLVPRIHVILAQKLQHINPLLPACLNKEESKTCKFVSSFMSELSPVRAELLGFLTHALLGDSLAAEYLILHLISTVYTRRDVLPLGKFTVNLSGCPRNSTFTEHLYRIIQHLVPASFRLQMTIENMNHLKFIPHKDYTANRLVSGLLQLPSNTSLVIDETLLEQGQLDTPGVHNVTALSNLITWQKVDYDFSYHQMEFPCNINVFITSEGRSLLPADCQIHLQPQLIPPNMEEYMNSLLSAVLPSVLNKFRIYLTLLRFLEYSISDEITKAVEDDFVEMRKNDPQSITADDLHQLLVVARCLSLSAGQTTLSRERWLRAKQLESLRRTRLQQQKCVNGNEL
UniProt Q14680: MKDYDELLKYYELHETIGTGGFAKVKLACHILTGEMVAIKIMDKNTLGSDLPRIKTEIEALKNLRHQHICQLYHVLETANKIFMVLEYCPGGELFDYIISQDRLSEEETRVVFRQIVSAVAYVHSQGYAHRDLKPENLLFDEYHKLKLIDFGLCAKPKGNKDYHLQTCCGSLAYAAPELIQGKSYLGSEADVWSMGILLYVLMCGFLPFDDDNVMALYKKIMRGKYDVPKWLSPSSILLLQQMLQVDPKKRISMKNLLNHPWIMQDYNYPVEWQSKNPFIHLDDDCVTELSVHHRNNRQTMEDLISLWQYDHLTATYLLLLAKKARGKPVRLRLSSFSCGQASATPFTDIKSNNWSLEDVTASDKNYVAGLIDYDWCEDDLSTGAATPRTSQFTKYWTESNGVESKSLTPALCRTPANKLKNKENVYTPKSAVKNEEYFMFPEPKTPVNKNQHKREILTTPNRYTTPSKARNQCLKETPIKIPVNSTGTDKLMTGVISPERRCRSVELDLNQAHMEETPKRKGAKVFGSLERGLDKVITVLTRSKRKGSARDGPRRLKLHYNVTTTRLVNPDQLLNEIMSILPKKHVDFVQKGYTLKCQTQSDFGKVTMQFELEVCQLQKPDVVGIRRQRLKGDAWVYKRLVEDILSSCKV
UniProt Q07820, whole entry, looked up: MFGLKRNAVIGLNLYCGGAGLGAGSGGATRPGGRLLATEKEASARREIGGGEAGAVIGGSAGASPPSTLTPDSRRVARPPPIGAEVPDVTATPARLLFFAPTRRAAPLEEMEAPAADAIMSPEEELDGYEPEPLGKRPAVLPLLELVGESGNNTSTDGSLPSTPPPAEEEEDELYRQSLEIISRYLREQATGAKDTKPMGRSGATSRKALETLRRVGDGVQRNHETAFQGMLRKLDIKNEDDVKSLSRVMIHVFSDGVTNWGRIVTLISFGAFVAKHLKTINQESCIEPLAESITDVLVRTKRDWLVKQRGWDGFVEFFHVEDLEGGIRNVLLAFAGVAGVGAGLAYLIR
UniProt Q14696: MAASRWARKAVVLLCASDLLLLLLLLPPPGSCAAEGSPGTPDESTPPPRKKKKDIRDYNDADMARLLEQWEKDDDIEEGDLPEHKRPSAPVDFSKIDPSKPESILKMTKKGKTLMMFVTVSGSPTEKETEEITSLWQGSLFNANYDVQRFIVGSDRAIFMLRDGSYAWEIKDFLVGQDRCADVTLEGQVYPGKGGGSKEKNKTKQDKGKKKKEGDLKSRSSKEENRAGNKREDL
UniProt Q9BUT9: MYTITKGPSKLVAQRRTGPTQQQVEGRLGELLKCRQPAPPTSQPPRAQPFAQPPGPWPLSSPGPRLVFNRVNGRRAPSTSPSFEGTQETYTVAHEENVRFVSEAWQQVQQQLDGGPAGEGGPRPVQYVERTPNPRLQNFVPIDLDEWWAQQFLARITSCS
UniProt O95243: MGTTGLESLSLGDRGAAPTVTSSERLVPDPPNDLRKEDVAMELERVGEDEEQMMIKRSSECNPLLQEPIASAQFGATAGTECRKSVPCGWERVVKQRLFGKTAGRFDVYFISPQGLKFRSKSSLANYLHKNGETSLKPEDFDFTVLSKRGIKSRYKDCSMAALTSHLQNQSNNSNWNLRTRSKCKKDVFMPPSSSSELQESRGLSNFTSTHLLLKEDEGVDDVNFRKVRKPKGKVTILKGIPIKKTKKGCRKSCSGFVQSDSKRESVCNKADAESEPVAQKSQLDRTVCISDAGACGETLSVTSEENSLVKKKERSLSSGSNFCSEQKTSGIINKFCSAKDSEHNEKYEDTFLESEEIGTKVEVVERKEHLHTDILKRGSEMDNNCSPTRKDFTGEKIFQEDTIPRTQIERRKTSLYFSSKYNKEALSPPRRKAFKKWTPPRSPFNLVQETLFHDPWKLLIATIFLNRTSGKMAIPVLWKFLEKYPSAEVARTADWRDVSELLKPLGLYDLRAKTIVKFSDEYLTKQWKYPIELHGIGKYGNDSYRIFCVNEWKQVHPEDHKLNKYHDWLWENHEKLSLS
UniProt Q5U5Q3: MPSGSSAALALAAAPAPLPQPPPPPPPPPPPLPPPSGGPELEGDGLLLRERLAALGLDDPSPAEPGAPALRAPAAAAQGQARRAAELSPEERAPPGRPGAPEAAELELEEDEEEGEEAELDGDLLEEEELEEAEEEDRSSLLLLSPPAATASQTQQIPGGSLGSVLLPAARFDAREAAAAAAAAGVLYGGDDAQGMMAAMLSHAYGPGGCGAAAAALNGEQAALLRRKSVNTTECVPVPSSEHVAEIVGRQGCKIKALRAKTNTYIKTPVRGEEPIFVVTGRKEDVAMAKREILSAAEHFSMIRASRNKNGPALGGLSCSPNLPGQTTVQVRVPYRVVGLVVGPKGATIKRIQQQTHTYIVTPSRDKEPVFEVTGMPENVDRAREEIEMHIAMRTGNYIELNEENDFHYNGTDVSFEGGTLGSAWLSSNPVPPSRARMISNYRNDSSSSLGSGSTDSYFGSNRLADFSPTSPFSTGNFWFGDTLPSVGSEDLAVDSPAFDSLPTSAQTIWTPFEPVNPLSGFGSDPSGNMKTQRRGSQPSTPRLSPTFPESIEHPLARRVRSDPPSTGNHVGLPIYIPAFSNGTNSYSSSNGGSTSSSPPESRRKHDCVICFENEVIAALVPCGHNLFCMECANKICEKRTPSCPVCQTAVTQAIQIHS

[1] = compound: Cc1nc(Nc2n[nH]c3c2CN(C(=O)N[C@H](CN(C)C)c2ccccc2)C3(C)C)c2sccc2n1
Outline: as §1

dasatinib = compound: Cc1nc(Nc2ncc(C(=O)Nc3c(C)cccc3Cl)s2)cc(N2CCN(CCO)CC2)n1 [dasatinib]
Outline: as §1

[2] = compound: Cc1ncc(-c2ccnc(Nc3ccc(S(C)(=O)=O)cc3)n2)n1C(C)C
Outline: as §1

[3] = compound: Cn1cc(-c2ccc3c(c2)CCN3C(=O)Cc2cccc(C(F)(F)F)c2)c2c(N)ncnc21
Outline: as §1

quisinostat = compound: Cn1cc(CNCC2CCN(c3ncc(C(=O)NO)cn3)CC2)c2ccccc21 [quisinostat]
Outline: as §1

tipifarnib = compound: Cn1cncc1[C@@](N)(c1ccc(Cl)cc1)c1ccc2c(c1)c(-c1cccc(Cl)c1)cc(=O)n2C [tipifarnib]
Outline: as §1

[4] = compound: NC(=O)Nc1cc(-c2cccc(F)c2)sc1C(=O)N[C@H]1CCCNC1
Outline: as §1

[5] = compound: NC(=O)c1cnc(N[C@@H]2CCCC[C@@H]2N)nc1Nc1cccc(-n2nccn2)c1
Outline: as §1

[6] = compound: NC1(c2ccc(-c3nc4ccn5c(=O)[nH]nc5c4cc3-c3ccccc3)cc2)CCC1
Outline: as §1

[7] = compound: NCC(=O)Nc1ccc(-n2nc(C(F)(F)F)cc2-c2ccc3c(ccc4ccccc43)c2)cc1
Outline: as §1

vorinostat = compound: O=C(CCCCCCC(=O)Nc1ccccc1)NO [vorinostat]
Outline: as §1

silmitasertib = compound: O=C(O)c1ccc2c(c1)nc(Nc1cccc(Cl)c1)c1ccncc12 [silmitasertib]
Outline: as §1

[8] = compound: O=C1NC(=O)C(c2cnc3ccccn23)=C1c1cn2c3c(cc(F)cc13)CN(C(=O)N1CCCCC1)CC2
Outline: as §1

entospletinib = compound: c1cn2cc(-c3ccc4cn[nH]c4c3)nc(Nc3ccc(N4CCOCC4)cc3)c2n1 [entospletinib]
Outline: as §1

| Target | log2 fold change (nilotinib) | log2 fold change [1] | log2 fold change (dasatinib) | log2 fold change [2] | log2 fold change [3] | log2 fold change (quisinostat) | log2 fold change (tipifarnib) | log2 fold change [4] | log2 fold change [5] | log2 fold change [6] | log2 fold change [7] | log2 fold change (vorinostat) | log2 fold change (silmitasertib) | log2 fold change [8] | log2 fold change (entospletinib) |
| --- | --- | --- | --- | --- | --- | --- | --- | --- | --- | --- | --- | --- | --- | --- | --- |
| MEIS2 (UniProt O14770) | inactive: 0.046 | inactive: -0.073 | inactive: 0.045 | inactive: -0.026 | inactive: -0.037 | inactive: -0.021 | inactive: -0.001 | inactive: 0.058 | inactive: 0.016 | inactive: -0.009 | inactive: 0.021 | inactive: 0.001 | inactive: -0.127 | inactive: -0.063 | inactive: 0.018 |
| MEF2A (UniProt Q02078) | inactive: -0.041 | inactive: 0.021 | inactive: -0.042 | inactive: 0.099 | inactive: 0.048 | inactive: -0.042 | inactive: 0.03 | inactive: 0.016 | inactive: -0.038 | inactive: -0.029 | inactive: 0.014 | inactive: 0.134 | inactive: 0.015 | inactive: -0.008 | inactive: 0 |
| MCCC1 (UniProt Q96RQ3) | inactive: -0.025 | inactive: 0.002 | inactive: -0.103 | inactive: 0.027 | inactive: 0.008 | inactive: -0.049 | inactive: 0.031 | inactive: 0.035 | inactive: 0.008 | inactive: -0.045 | inactive: 0.028 | active: -0.292 | inactive: 0.02 | inactive: -0.003 | inactive: 0.023 |
| MEF2D (UniProt Q14814) | inactive: 0.002 | inactive: 0.048 | inactive: -0.035 | inactive: -0.049 | inactive: -0.029 | inactive: 0.085 | inactive: -0.032 | inactive: 0.053 | inactive: -0.037 | inactive: -0.036 | inactive: -0.032 | inactive: 0.029 | inactive: -0.018 | inactive: -0.031 | inactive: 0.033 |
| MEAK7 (UniProt Q6P9B6) | inactive: 0.027 | inactive: 0 | inactive: -0.058 | inactive: 0.013 | inactive: -0.06 | inactive: -0.033 | inactive: 0.047 | inactive: 0.05 | inactive: -0.026 | inactive: 0.003 | inactive: -0.008 | inactive: -0.174 | inactive: 0.018 | inactive: 0.015 | inactive: -0.002 |
| MCM6 (UniProt Q14566) | inactive: -0.053 | inactive: 0.016 | inactive: -0.006 | inactive: -0.018 | inactive: 0.01 | inactive: 0.019 | inactive: 0.004 | inactive: -0.002 | inactive: -0.003 | inactive: 0.009 | inactive: -0.019 | inactive: -0.167 | inactive: 0.053 | inactive: -0.003 | inactive: 0.003 |
| MED27 (UniProt Q6P2C8) | inactive: 0.027 | inactive: -0.101 | inactive: -0.025 | inactive: 0.004 | inactive: -0.005 | inactive: -0.145 | inactive: 0.053 | inactive: 0.042 | inactive: 0 | inactive: 0.023 | inactive: 0.068 | inactive: -0.093 | inactive: -0.005 | inactive: -0.044 | inactive: 0 |
| MED15 (UniProt Q96RN5) | inactive: -0.05 | inactive: 0.08 | inactive: 0 | inactive: 0.015 | inactive: 0.02 | inactive: 0 | inactive: 0.007 | inactive: 0.014 | inactive: 0.031 | inactive: 0 | inactive: -0.024 | inactive: 0.052 | inactive: -0.031 | inactive: 0.001 | inactive: 0.018 |
| MBLAC2 (UniProt Q68D91) | inactive: 0.028 | inactive: -0.076 | inactive: -0.003 | inactive: -0.126 | inactive: 0.059 | inactive: 0.026 | inactive: 0.08 | inactive: 0 | inactive: -0.005 | inactive: 0.005 | inactive: -0.1 | inactive: 0.084 | inactive: -0.015 | inactive: -0.074 | inactive: -0.011 |
| MCMBP (UniProt Q9BTE3) | inactive: -0.01 | inactive: -0.008 | inactive: -0.031 | inactive: -0.028 | inactive: 0.008 | inactive: -0.039 | inactive: 0.024 | inactive: 0.039 | inactive: 0.014 | inactive: -0.033 | inactive: -0.01 | active: -0.415 | inactive: 0.028 | inactive: -0.013 | inactive: -0.007 |
| MELK (UniProt Q14680) | inactive: 0.142 | inactive: 0.034 | inactive: 0 | inactive: -0.045 | inactive: 0.043 | inactive: -0.209 | inactive: -0.117 | inactive: -0.156 | inactive: -0.053 | inactive: -0.123 | inactive: 0.049 | inactive: -0.349 | inactive: 0.366 | inactive: -0.012 | inactive: 0.119 |
| METAP1 (UniProt P53582) | inactive: 0.016 | inactive: -0.022 | inactive: -0.054 | inactive: -0.021 | inactive: 0.009 | inactive: 0.002 | inactive: 0.023 | inactive: 0.025 | inactive: -0.012 | inactive: 0.007 | inactive: 0.014 | inactive: 0.187 | inactive: -0.024 | inactive: -0.013 | inactive: -0.004 |
| MED8 isoform 2 (UniProt Q96G25) | inactive: 0.084 | inactive: -0.033 | inactive: -0.017 | inactive: -0.007 | inactive: 0.044 | inactive: -0.043 | inactive: 0.081 | inactive: -0.005 | inactive: 0.016 | inactive: 0.024 | inactive: 0.019 | inactive: 0.037 | inactive: -0.012 | inactive: -0.026 | inactive: 0 |
| MCL1 (UniProt Q07820) | inactive: 0.045 | inactive: -0.046 | inactive: -0.068 | inactive: -0.284 | inactive: 0.211 | inactive: -0.066 | inactive: -0.125 | inactive: 0.031 | inactive: -0.045 | inactive: 0.224 | inactive: -0.028 | inactive: -0.02 | inactive: 0.174 | inactive: -0.008 | inactive: -0.026 |
| MESD (UniProt Q14696) | inactive: 0.012 | inactive: 0.005 | inactive: -0.028 | inactive: -0.009 | inactive: 0.02 | inactive: 0.057 | inactive: -0.005 | inactive: -0.061 | inactive: -0.005 | inactive: -0.015 | inactive: -0.109 | inactive: 0.117 | inactive: 0.009 | inactive: -0.114 | inactive: 0.011 |
| MCM5 (UniProt P33992) | inactive: 0.004 | inactive: -0.021 | inactive: 0.021 | inactive: -0.018 | inactive: -0.011 | inactive: -0.022 | inactive: -0.018 | inactive: 0.003 | inactive: -0.003 | inactive: 0.013 | inactive: -0.026 | inactive: -0.101 | inactive: 0.044 | inactive: -0.012 | inactive: 0 |
| MCRIP2 (UniProt Q9BUT9) | inactive: 0.056 | inactive: 0.09 | inactive: 0.151 | inactive: 0.067 | inactive: -0.088 | inactive: -0.113 | inactive: -0.036 | inactive: -0.073 | inactive: 0.073 | inactive: 0.066 | inactive: -0.048 | inactive: -0.035 | inactive: -0.147 | inactive: 0.031 | inactive: -0.142 |
| MED13 (UniProt Q9UHV7) | inactive: 0.053 | inactive: -0.037 | inactive: -0.027 | inactive: 0.057 | inactive: 0.019 | inactive: -0.027 | inactive: 0.03 | inactive: 0.014 | inactive: 0.051 | inactive: -0.035 | inactive: -0.034 | inactive: -0.173 | inactive: 0.019 | inactive: -0.017 | inactive: -0.034 |
| MEF2A isoform 2 (UniProt Q02078) | inactive: -0.099 | inactive: 0.124 |  | inactive: -0.021 |  | inactive: -0.086 | inactive: -0.042 | inactive: -0.052 | inactive: -0.005 | inactive: -0.008 | inactive: -0.003 | inactive: -0.049 | inactive: 0.065 | inactive: -0.12 |  |
| MBD4 (UniProt O95243) | inactive: 0.073 | inactive: -0.129 | inactive: -0.058 | inactive: 0.01 | inactive: 0.08 | inactive: -0.044 | inactive: -0.024 | inactive: -0.064 | inactive: -0.108 |  |  |  |  | inactive: -0.024 | inactive: 0.088 |
| MEX3C (UniProt Q5U5Q3) | inactive: -0.076 | inactive: -0.037 |  | inactive: -0.321 |  | inactive: -0.063 | inactive: -0.309 | inactive: 0.13 |  | inactive: 0 |  | inactive: 0.089 | inactive: 0.03 | inactive: 0.096 |  |

Record cards, as listed above. Order of values: log2 fold change (nilotinib)	log2 fold change [1]	log2 fold change (dasatinib)	log2 fold change [2]	log2 fold change [3]	log2 fold change (quisinostat)	log2 fold change (tipifarnib)	log2 fold change [4]	log2 fold change [5]	log2 fold change [6]	log2 fold change [7]	log2 fold change (vorinostat)	log2 fold change (silmitasertib)	log2 fold change [8]	log2 fold change (entospletinib)
MCCC1 (UniProt Q96RQ3) reads inactive: -0.025	inactive: 0.002	inactive: -0.103	inactive: 0.027	inactive: 0.008	inactive: -0.049	inactive: 0.031	inactive: 0.035	inactive: 0.008	inactive: -0.045	inactive: 0.028	active: -0.292	inactive: 0.02	inactive: -0.003	inactive: 0.023
MCL1 (UniProt Q07820) reads inactive: 0.045	inactive: -0.046	inactive: -0.068	inactive: -0.284	inactive: 0.211	inactive: -0.066	inactive: -0.125	inactive: 0.031	inactive: -0.045	inactive: 0.224	inactive: -0.028	inactive: -0.02	inactive: 0.174	inactive: -0.008	inactive: -0.026

From the supplement of paper PMC10849652
